This is an account of results in the supplement of paper PMC11732987, “Enantioselective OTUD7B fragment discovery through chemoproteomics screening and high-throughput optimisation” (Communications Chemistry, 2025).

Protein sequences, listed by entry. Tags and fused reporters are not part of them. Lines headed by an entry give the natural chain unless they say otherwise; changes in a name come on top. Residues count along the entry.
UniProt Q7Z478: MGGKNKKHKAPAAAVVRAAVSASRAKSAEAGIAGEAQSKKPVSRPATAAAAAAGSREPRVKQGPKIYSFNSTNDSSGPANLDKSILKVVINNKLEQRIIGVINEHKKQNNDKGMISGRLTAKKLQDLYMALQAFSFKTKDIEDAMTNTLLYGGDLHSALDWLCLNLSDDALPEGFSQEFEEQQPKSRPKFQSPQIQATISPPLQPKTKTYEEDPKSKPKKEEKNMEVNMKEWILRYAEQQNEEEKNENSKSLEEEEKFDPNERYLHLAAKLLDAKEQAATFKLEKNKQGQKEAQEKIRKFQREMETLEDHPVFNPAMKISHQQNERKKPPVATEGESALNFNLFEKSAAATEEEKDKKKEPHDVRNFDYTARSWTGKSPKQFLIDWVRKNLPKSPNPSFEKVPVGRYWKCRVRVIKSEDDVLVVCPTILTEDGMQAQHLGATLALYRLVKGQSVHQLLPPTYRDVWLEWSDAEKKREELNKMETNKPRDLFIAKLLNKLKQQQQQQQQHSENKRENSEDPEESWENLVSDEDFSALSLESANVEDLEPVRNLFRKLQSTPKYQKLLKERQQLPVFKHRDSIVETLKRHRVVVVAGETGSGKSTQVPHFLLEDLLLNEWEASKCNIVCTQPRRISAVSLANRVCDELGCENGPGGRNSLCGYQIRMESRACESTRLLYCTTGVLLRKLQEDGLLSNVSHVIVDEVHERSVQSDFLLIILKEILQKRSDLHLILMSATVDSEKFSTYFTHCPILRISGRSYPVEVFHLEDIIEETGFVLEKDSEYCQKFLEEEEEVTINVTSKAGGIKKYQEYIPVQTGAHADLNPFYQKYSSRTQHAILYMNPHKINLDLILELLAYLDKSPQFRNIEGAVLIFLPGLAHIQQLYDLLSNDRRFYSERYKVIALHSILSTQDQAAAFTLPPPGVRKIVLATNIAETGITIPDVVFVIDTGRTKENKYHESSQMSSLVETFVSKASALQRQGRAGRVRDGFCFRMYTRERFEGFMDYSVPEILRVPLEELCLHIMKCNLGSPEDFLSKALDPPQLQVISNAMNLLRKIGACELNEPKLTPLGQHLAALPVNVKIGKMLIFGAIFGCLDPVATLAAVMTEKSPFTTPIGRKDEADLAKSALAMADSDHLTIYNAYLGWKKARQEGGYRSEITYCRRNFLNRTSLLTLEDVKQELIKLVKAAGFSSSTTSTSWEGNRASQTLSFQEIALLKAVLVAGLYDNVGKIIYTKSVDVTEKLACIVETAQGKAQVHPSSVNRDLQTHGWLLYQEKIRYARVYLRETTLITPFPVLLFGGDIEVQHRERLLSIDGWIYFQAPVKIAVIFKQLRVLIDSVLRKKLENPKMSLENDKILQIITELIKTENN
UniProt Q14147: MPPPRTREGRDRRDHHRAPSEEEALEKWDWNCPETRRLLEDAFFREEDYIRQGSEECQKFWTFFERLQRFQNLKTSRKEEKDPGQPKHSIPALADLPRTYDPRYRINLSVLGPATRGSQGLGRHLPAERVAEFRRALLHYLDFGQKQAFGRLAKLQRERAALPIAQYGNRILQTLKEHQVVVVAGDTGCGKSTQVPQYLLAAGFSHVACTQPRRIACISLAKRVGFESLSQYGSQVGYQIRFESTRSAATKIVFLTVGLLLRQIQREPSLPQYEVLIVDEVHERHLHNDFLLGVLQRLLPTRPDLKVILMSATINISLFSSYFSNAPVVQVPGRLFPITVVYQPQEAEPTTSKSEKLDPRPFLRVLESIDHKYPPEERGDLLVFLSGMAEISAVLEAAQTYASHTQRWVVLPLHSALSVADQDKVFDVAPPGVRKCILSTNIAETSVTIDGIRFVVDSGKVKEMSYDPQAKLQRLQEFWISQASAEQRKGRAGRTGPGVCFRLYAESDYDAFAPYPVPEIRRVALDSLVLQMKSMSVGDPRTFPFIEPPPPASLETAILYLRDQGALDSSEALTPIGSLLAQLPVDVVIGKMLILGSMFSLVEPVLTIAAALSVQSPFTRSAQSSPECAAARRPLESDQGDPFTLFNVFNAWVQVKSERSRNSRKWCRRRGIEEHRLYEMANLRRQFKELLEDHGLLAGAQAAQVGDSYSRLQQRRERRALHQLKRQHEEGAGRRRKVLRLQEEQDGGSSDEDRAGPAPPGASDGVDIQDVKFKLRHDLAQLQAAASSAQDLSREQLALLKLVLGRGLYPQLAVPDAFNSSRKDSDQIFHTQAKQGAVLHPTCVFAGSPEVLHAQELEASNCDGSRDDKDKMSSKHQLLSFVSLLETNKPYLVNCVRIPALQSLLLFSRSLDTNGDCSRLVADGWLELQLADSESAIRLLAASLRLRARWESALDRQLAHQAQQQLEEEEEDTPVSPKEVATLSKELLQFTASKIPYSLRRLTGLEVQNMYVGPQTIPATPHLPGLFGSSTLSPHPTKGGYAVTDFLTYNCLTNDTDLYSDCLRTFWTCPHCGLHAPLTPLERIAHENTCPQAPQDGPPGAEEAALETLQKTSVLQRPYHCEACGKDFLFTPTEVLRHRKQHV
UniProt Q8NDZ4: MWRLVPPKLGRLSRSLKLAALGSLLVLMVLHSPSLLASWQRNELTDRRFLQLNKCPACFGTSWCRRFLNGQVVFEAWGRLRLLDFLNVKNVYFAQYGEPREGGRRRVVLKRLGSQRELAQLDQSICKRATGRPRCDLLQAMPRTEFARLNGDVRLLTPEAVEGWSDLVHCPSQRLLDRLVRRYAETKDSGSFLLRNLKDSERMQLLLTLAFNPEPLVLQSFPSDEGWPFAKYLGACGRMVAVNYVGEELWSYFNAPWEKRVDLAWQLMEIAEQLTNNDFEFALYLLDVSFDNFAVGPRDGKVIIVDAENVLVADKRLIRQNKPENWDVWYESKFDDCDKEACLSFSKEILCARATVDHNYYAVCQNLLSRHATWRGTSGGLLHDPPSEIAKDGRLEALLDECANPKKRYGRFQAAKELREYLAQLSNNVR
UniProt Q86TI2: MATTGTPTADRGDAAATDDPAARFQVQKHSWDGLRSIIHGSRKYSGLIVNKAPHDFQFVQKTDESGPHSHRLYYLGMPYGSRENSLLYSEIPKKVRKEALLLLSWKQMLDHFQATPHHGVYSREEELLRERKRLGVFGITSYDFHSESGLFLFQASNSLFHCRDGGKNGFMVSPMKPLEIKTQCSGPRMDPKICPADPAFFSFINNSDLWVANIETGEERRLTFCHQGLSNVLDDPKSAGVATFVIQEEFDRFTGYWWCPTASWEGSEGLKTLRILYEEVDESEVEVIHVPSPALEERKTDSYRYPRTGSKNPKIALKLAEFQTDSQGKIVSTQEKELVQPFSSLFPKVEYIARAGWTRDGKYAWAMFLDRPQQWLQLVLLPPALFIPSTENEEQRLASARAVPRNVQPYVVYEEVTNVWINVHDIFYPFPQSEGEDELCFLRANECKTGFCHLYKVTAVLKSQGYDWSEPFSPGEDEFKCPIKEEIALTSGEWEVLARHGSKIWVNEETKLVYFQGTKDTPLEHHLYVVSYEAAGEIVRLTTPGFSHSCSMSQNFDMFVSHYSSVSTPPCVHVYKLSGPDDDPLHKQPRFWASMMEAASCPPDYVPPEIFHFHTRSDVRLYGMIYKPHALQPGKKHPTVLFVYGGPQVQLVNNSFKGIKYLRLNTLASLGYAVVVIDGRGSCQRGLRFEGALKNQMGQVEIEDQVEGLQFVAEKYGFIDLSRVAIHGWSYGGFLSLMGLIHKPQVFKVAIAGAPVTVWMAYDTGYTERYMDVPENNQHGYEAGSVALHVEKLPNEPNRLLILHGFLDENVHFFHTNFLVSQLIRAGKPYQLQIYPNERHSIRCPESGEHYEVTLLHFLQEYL
UniProt O00429, whole entry, looked up: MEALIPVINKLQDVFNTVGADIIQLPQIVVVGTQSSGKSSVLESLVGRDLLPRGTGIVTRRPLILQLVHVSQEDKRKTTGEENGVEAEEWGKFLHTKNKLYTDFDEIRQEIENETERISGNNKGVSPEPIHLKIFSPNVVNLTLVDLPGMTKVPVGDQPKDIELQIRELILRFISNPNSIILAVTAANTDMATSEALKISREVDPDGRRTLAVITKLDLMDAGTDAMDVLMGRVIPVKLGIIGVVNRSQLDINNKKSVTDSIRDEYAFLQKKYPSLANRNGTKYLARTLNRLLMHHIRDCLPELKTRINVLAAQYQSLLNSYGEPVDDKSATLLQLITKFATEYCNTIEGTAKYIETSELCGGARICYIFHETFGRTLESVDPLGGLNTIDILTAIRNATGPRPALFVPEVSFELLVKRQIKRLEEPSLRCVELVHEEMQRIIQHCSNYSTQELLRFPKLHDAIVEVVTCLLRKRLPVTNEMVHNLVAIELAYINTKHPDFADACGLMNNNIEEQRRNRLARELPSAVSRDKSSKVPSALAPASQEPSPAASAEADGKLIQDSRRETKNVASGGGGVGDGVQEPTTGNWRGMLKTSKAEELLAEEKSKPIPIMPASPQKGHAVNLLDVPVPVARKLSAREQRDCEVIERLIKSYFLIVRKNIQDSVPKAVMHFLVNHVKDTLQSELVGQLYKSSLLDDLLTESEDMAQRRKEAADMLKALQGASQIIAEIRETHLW
UniProt Q8IWF6, 200-221: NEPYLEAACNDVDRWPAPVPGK
UniProt Q15398: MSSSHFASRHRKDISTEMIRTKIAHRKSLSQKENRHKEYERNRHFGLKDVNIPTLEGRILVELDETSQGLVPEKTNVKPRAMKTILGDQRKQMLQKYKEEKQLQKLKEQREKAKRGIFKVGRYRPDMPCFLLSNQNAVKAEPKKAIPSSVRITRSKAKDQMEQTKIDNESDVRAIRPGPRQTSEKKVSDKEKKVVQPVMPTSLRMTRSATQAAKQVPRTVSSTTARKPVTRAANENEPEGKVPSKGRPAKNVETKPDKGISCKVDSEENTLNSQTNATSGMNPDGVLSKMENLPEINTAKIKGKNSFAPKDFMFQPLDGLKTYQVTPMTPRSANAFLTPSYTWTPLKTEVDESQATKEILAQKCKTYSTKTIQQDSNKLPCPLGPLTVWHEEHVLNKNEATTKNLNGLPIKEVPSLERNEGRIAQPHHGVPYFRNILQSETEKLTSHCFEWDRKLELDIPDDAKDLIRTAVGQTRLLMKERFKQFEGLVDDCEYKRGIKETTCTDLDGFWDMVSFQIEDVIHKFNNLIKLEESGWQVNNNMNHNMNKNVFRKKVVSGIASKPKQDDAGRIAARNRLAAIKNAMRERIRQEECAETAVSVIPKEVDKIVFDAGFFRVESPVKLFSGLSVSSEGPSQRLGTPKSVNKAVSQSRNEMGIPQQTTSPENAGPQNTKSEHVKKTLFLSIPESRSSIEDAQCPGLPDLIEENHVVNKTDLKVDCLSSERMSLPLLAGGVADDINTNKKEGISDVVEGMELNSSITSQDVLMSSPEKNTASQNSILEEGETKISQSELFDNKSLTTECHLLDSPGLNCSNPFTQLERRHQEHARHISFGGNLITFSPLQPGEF
UniProt Q86Y56: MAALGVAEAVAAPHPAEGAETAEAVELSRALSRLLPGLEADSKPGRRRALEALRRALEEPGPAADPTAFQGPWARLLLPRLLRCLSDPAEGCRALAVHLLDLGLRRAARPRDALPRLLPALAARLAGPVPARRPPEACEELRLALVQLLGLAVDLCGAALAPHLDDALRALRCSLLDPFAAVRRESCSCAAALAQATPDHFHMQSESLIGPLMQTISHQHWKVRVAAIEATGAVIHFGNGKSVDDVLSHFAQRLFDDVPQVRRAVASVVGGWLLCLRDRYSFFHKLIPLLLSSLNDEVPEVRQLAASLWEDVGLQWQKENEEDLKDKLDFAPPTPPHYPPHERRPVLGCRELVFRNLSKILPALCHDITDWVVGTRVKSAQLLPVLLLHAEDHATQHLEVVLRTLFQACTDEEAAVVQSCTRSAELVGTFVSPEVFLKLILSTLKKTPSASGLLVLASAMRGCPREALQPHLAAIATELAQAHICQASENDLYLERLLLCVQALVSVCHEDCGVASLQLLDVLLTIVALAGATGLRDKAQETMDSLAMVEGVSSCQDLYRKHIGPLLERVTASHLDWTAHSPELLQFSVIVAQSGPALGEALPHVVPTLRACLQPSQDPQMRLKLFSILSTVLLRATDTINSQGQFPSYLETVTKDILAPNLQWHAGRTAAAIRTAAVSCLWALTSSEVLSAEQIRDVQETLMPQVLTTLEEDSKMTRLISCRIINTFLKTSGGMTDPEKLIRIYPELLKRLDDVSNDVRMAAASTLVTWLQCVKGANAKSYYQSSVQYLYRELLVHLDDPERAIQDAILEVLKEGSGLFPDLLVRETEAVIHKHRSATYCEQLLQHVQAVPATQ
UniProt Q12882, 656-678: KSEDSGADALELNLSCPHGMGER

This is one part of the list. The data scatter; read single values as rough.

Compound in this experiment: ClCC(=O)N[C@@H]1CCCc2ccccc12
Put plainly: log2 mean competition ratio of IA-DTB cysteine labelling (DMSO/compound) (log2 ratio); higher = stronger cysteine engagement by compound. Particulars: 50 µM; treatment time: 4 h; cell line lysate: HEK293T. On the procedure:
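IA-DTB competitive cysteine chemoproteomics in HEK293T RIPA lysate. Lysates were treated with compound 29 or 30 at 50 or 200 µM for 4 h, then IA-DTB (500 µM, 1 h), trypsin-digested, NeutrAvidin-enriched and analysed by diaPASEF. Competition ratio = intensity DMSO / intensity compound (n=4 treated, n=64 DMSO); binding: mean log2 CR ≥ 1 and p ≤ 0.05 plus QC filters. Target is the cysteine site.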
With DENND4C C1105 (UniProt Q5VZ89), the “log2 mean competition ratio” value was -0.132. For the target DHX29 C749 (UniProt Q7Z478), the “log2 mean competition ratio” value is 0.401.

For the target DNAJC7 C58 (UniProt Q99615), the “log2 mean competition ratio” value is -0.0873. On to DGCR8 C91 (UniProt Q8WYQ5), for which the “log2 mean competition ratio” value is -0.00641. For the target DNMT1 C41 (UniProt P26358), the “log2 mean competition ratio” value is -0.121. In the case of DPF2 C24 (UniProt Q92785), the “log2 mean competition ratio” value turned out to be 0.329. For DHCR7 C380 (UniProt Q9UBM7), the “log2 mean competition ratio” value was found to be 0.0217. Take DHX9 C1029 (UniProt Q08211): the “log2 mean competition ratio” value was found to be 0.186. As for DOCK1 C595 (UniProt Q14185), the “log2 mean competition ratio” value came out at 0.208. Take DLG5 C1816 (UniProt Q8TDM6): the “log2 mean competition ratio” value was 0.253. DHX34 C500 (UniProt Q14147): the “log2 mean competition ratio” value was found to be 0.0484.

Consider DIPK2A C135 (UniProt Q8NDZ4), for which the “log2 mean competition ratio” value came out at 0.182. With DPP9 C184 (UniProt Q86TI2) the figure was -0.129. For the target DNAJB4 C175 (UniProt Q9UDY4), the “log2 mean competition ratio” value is -0.383. Regarding DIAPH3 C680 (UniProt Q9NSV4), the “log2 mean competition ratio” value stood at 0.419. Turning to DHX15 C774 (UniProt O43143), the “log2 mean competition ratio” value is 0.0797. With DNM1L C431 (UniProt O00429), the “log2 mean competition ratio” value worked out at 0.146. As to DNTTIP2 C618 (UniProt Q5QJE6), the “log2 mean competition ratio” value came out at 0.616. On to DHX34 C628 (UniProt Q14147), for which the “log2 mean competition ratio” value was 0.171. As for DPYSL2 C248 (UniProt Q16555), the “log2 mean competition ratio” value is -0.034. DENND6A C208 (UniProt Q8IWF6): the “log2 mean competition ratio” value is -0.206.

On to DLGAP5 C592 (UniProt Q15398), for which the “log2 mean competition ratio” value is -0.439. As for DHX16 C714 (UniProt O60231), the “log2 mean competition ratio” value is -0.0532. Regarding DIPK1A C354 (UniProt Q5T7M9), the “log2 mean competition ratio” value came to 0.254. Turning to DNAAF5 C841 (UniProt Q86Y56), the “log2 mean competition ratio” value was -0.215. In the case of DNAJC2 C140 (UniProt Q99543) it was -0.521. Turning to DNAJC7 C337 (UniProt Q99615), the “log2 mean competition ratio” value turned out to be 0.0852. In the case of DIAPH1 C964 it was 0.259; in that of DPY19L3 C684 (UniProt Q6ZPD9), 0.409; in that of DOCK4 C293, 0.215.

Regarding DPYSL5 C22, the “log2 mean competition ratio” value was determined as 0.0109.

In the case of DOT1L C1075 (UniProt Q8TEK3), the “log2 mean competition ratio” value is -0.125. DIAPH3 C1158 (UniProt Q9NSV4): the “log2 mean competition ratio” value is -0.177.

With DIPK1A C347 (UniProt Q5T7M9), the “log2 mean competition ratio” value was 0.0568.

On to DPYD C671 (UniProt Q12882), for which the “log2 mean competition ratio” value is -0.369. With DHX16 C37 (UniProt O60231) the figure was -0.04; with DHX34 C57 (UniProt Q14147), -0.395. In the case of DNM3 C453 it was -0.19.
